1 molecule from PMC9927378 can be followed below.

In the experiment the target is Le4759-FLAG (Lysobacter enzymogenes OH11). The experiment in a line: pull-down; in vitro pull-down; 5 uM His-tagged protein and FLAG-tagged protein in 1.5 mL PBS, magnetic beads overnight at 4°C (anti-His beads in the methods, anti-FLAG antibody in the legend), washed with PBS with 1% Triton X-100; Western blot with anti-FLAG and anti-His; both purified. (In general: A western blot detects proteins with antibodies after separation by electrophoresis.)

Results are given in words; binding and its absence hold for the method and conditions named. A result given as binding can be weak or reduced; the word gives no strength. Tags and fused reporters may be left off the sequences shown.

B1: CarI-His (enzyme, UniProt P33880 1-216)
chain: MLEIFDVNHTLLSETKSGELFTLRKETFKDRLNWAVQCTDGMEFDQYDNNNTTYLFGIKDNTVICSLRFIETKYPNMITGTFFPYFKEINIPEGNYLESSRFFVDKSRAKDILGNEYPISSMLFLSMINYSKDKGYDGIYTIVSHPMLTILKRSGWGIRVVEQGLSEKEERVYLVFLPVDDENQEALARRINRSGTFMSNELKQWPLRVPAAIAQA
As to B1, the binding result was “binds”.
